Publication PMC3166162, “A Dual Binding Mode for RhoGTPases in Plexin Signalling” (PLoS Biology, 2011)
These are yes or no findings as the source states them, for the method shown.

The chains behind the UniProt entries cited, without tags or fusion partners. Where a name states a change or a piece, a line headed by the entry shows the natural chain unless it says otherwise. A line that says so, or that is headed by a name, gives the form on record, which may keep a tag or linker.
Plexin-B1Δ2 Leu1815Glu (O43157, form named): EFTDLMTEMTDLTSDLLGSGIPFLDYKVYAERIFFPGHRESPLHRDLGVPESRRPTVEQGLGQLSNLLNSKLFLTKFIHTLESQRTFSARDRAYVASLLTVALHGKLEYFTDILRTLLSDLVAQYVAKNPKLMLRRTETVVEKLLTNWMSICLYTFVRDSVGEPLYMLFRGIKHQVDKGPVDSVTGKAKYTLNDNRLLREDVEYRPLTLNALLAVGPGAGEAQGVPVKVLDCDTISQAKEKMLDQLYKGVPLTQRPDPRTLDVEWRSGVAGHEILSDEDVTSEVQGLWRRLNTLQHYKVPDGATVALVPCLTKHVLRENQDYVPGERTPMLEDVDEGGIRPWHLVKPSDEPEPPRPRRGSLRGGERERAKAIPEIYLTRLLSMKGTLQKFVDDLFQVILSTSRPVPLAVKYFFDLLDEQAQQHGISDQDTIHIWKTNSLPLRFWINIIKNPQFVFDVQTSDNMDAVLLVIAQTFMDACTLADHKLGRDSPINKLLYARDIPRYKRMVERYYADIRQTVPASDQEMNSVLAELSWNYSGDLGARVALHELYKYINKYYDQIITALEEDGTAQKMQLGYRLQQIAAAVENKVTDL
Plexin-B1_(cyto) Leu1815Glu (O43157, form named): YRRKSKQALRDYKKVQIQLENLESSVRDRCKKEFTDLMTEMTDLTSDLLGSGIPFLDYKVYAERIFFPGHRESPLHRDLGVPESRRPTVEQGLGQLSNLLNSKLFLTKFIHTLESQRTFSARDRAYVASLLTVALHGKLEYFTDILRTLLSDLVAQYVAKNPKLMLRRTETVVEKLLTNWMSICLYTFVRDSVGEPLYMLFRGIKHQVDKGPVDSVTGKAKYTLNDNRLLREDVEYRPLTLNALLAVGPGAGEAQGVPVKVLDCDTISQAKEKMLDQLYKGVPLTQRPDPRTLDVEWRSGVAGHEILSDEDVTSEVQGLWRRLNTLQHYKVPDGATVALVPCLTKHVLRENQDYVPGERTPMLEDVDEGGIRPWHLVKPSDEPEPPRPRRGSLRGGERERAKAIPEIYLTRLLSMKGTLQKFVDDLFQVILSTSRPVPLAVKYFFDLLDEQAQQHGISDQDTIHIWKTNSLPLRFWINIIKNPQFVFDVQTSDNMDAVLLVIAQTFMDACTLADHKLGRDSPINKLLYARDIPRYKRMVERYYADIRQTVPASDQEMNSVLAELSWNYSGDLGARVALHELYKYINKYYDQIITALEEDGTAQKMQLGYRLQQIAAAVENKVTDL
Plexin-B1_(cyto) Leu1815Pro (O43157, form named): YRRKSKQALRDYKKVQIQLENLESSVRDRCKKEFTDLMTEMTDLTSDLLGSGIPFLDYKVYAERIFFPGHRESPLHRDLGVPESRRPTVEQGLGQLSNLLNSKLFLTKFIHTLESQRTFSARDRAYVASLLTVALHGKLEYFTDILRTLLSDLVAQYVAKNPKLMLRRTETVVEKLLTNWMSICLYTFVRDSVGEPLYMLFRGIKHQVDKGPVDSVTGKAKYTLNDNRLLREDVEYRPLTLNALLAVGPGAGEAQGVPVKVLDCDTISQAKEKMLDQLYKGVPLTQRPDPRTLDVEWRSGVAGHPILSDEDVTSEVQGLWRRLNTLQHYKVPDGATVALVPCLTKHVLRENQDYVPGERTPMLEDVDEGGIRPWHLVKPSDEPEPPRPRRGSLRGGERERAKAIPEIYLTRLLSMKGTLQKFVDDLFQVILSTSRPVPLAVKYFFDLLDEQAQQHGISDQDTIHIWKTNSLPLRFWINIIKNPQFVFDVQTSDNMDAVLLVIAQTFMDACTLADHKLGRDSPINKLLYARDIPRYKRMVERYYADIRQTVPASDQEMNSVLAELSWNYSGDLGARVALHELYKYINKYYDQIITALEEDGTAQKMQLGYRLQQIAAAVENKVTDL
Plexin-B1_(cyto) Trp1807Glu (O43157, form named): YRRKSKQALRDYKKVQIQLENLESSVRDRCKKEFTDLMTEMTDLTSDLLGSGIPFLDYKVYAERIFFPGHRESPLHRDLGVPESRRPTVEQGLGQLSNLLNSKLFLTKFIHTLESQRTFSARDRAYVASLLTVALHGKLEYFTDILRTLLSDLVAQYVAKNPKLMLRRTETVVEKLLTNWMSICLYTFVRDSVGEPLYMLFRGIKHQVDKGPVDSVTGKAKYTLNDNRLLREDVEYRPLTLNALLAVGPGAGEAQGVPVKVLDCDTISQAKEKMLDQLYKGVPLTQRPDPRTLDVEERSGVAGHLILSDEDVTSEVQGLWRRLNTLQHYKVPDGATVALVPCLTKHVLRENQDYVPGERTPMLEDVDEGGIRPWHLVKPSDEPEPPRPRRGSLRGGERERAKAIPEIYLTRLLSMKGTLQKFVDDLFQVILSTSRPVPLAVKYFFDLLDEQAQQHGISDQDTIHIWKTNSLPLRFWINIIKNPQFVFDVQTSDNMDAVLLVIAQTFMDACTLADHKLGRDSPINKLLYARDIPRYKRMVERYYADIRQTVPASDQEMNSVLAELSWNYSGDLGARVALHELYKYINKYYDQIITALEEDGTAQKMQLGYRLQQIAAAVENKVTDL

Experiments:
[1] = target: Plexin-B1Δ2 Leu1815Glu (human) (UniProt O43157); assay: condition: only at low coupling density (500 RU loaded on the chip); SPR; as a1, low coupling density: 500 RU of the plexin construct loaded on the chip; RhoGTPase 120 nM to 2,000 µM; both purified
[2] = target: Plexin-B1_(cyto) Leu1815Glu (human) (UniProt O43157); assay: SPR; Biacore T100, 25°C, standard buffer with 0.05% (v/v) Tween 20; biotinylated plexin constructs on streptavidin surfaces (500-5,000 RU); RhoGTPase injected, 120 nM to 500 µM; equilibrium responses fitted to a 1:1 Langmuir model; both purified
[3] = target: Plexin-B1_(cyto) Leu1815Pro (human) (UniProt O43157); assay: as above
[4] = target: Plexin-B1_(cyto) Trp1807Glu (human) (UniProt O43157); assay: as above

B1: Rnd1 (residues 5-200) (enzyme, human, UniProt Q92730 5-200, looked up)
chain: RAPQPVVARCKLVLVGDVQCGKTAMLQVLAKDCYPETYVPTVFENYTACLETEEQRVELSLWDTSGSPYYDNVRPLCYSDSDAVLLCFDISRPETVDSALKKWRTEILDYCPSTRVLLIGCKTDLRTDLSTLMELSHQKQAPISYEQGCAIAKQLGAEIYLEGSAFTSEKSIHSIFRTASMLCLNKPSPLPQKSPV
notes: human Rnd1, residues 5-200; source: E. coli BL21 Star, purified
[1]
  binding: no binding
[2]
  binding: no binding (tested: up to 500 µM RhoGTPase)
[3]
  binding: no binding (tested: up to 500 µM RhoGTPase)
[4]
  binding: no binding (tested: up to 500 µM RhoGTPase)
